Source: patent publication US20170158755A1
Results are given in words; binding and its absence hold for the method and conditions named. Some results given as binding are weak or reduced against the parent protein; the word gives no strength.

Amino acid sequences for entries named in this document (tags omitted). A change or cut given only in a name is not applied to a line headed by its entry. Residues count along the entry.
UniProt P97927, residues 826-1816: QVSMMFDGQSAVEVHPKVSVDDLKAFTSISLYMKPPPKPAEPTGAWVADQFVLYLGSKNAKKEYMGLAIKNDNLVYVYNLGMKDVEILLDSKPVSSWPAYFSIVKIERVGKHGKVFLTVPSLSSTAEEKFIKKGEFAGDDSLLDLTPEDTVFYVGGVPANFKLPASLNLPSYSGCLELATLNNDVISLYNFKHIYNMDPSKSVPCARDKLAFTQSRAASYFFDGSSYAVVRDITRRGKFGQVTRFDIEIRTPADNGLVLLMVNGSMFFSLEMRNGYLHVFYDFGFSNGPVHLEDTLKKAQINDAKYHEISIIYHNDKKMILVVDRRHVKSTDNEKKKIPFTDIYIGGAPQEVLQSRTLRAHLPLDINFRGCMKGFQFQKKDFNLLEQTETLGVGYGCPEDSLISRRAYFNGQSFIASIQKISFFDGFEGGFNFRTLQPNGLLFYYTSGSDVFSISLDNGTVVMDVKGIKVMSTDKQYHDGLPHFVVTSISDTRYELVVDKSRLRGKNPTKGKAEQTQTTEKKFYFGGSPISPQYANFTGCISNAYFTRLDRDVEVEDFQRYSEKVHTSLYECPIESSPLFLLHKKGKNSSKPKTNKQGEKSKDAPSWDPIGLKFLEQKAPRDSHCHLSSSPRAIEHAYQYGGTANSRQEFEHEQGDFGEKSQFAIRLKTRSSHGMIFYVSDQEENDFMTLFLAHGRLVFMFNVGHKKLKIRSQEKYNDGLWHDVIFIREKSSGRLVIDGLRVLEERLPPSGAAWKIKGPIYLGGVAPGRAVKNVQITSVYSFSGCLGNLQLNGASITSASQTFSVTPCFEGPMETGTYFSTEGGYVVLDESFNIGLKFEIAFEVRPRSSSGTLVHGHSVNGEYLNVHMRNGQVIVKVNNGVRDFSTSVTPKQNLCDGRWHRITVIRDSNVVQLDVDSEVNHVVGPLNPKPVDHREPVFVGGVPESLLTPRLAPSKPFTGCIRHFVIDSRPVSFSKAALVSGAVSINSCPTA
UniProt Q16363: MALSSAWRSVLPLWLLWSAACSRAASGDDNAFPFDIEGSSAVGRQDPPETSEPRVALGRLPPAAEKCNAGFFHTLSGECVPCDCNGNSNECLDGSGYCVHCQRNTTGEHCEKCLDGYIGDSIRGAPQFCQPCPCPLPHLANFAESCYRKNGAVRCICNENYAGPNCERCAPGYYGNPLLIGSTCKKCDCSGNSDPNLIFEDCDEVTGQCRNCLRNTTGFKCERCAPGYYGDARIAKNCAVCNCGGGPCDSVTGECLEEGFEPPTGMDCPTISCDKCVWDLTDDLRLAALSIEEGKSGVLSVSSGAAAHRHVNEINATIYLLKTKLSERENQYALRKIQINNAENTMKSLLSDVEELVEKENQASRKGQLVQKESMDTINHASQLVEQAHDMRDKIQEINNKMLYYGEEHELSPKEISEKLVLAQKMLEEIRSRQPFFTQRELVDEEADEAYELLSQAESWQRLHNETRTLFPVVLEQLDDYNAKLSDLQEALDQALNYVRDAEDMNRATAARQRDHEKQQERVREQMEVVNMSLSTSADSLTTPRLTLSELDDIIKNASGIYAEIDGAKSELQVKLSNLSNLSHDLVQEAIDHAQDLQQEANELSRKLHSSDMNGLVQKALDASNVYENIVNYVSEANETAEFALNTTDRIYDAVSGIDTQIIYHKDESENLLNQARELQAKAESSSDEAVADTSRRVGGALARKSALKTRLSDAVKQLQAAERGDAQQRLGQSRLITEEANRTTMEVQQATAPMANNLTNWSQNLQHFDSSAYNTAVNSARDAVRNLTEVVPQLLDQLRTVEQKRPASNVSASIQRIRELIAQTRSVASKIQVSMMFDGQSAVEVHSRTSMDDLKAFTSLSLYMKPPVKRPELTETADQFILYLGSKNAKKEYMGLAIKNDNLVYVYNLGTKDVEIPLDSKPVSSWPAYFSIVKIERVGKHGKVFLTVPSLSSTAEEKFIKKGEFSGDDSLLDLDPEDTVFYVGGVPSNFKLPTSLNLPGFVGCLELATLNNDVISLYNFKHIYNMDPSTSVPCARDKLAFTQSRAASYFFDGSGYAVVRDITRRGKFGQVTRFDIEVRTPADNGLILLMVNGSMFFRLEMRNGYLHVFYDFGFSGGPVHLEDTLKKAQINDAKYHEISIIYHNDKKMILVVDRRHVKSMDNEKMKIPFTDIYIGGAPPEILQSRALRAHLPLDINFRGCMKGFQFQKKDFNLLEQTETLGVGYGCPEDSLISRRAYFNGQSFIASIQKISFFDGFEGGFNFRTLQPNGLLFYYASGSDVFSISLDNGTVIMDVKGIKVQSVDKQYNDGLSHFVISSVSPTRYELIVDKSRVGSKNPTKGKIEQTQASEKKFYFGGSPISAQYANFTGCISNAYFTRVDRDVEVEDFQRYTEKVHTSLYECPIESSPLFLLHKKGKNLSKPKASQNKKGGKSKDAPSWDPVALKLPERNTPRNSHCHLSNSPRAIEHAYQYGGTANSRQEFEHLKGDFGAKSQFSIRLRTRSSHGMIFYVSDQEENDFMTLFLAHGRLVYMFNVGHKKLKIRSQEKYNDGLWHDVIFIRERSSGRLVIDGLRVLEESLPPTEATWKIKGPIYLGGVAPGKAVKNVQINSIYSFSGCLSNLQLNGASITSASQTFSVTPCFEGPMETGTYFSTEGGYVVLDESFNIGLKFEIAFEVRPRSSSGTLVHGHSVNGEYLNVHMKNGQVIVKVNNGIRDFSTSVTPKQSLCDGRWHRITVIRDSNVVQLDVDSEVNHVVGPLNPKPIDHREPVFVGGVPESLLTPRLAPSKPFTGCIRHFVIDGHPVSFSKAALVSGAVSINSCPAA
UniProt P07942: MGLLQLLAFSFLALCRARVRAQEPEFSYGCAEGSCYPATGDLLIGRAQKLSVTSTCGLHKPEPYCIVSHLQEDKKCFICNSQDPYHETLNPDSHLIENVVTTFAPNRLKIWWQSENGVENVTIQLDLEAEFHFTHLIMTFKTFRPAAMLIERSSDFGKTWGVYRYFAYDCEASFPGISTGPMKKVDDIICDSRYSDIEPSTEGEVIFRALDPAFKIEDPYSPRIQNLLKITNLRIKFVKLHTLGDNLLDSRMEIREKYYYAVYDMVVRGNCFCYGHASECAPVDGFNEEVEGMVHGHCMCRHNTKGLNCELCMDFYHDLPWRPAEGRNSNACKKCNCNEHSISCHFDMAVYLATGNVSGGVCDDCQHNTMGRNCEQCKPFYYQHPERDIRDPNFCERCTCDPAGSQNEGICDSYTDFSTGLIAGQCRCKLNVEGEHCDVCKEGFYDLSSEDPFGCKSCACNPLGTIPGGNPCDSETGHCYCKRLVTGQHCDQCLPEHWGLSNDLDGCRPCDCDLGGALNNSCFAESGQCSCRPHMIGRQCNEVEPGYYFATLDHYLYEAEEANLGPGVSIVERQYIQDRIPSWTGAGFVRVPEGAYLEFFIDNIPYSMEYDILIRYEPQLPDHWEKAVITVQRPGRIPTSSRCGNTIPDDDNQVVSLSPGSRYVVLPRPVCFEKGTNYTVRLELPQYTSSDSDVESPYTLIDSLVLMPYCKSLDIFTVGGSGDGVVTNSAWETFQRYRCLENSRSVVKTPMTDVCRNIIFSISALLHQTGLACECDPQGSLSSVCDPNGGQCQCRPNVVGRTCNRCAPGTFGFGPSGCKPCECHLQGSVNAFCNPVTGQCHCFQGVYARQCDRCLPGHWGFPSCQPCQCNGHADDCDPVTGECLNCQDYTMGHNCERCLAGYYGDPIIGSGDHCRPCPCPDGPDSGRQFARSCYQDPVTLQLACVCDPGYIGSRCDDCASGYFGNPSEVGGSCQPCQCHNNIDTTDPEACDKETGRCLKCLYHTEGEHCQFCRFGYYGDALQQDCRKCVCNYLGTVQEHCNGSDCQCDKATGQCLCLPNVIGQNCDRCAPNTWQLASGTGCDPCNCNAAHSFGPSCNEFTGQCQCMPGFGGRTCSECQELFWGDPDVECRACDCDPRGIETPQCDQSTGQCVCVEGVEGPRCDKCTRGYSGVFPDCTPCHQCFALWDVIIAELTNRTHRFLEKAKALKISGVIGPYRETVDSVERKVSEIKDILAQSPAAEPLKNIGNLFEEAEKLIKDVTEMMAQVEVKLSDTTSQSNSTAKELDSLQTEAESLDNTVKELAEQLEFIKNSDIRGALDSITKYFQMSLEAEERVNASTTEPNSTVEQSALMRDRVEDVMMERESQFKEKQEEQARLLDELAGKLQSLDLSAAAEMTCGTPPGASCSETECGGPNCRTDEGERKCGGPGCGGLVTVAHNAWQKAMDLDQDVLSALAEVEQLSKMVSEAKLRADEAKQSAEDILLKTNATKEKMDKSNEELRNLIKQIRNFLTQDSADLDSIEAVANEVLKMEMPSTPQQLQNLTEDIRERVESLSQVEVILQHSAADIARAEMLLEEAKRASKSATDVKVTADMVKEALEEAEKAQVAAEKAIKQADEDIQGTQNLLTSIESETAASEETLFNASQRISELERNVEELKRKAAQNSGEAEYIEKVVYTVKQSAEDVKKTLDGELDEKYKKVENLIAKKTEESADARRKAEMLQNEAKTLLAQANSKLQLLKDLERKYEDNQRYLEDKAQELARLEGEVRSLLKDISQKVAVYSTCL
UniProt P11047: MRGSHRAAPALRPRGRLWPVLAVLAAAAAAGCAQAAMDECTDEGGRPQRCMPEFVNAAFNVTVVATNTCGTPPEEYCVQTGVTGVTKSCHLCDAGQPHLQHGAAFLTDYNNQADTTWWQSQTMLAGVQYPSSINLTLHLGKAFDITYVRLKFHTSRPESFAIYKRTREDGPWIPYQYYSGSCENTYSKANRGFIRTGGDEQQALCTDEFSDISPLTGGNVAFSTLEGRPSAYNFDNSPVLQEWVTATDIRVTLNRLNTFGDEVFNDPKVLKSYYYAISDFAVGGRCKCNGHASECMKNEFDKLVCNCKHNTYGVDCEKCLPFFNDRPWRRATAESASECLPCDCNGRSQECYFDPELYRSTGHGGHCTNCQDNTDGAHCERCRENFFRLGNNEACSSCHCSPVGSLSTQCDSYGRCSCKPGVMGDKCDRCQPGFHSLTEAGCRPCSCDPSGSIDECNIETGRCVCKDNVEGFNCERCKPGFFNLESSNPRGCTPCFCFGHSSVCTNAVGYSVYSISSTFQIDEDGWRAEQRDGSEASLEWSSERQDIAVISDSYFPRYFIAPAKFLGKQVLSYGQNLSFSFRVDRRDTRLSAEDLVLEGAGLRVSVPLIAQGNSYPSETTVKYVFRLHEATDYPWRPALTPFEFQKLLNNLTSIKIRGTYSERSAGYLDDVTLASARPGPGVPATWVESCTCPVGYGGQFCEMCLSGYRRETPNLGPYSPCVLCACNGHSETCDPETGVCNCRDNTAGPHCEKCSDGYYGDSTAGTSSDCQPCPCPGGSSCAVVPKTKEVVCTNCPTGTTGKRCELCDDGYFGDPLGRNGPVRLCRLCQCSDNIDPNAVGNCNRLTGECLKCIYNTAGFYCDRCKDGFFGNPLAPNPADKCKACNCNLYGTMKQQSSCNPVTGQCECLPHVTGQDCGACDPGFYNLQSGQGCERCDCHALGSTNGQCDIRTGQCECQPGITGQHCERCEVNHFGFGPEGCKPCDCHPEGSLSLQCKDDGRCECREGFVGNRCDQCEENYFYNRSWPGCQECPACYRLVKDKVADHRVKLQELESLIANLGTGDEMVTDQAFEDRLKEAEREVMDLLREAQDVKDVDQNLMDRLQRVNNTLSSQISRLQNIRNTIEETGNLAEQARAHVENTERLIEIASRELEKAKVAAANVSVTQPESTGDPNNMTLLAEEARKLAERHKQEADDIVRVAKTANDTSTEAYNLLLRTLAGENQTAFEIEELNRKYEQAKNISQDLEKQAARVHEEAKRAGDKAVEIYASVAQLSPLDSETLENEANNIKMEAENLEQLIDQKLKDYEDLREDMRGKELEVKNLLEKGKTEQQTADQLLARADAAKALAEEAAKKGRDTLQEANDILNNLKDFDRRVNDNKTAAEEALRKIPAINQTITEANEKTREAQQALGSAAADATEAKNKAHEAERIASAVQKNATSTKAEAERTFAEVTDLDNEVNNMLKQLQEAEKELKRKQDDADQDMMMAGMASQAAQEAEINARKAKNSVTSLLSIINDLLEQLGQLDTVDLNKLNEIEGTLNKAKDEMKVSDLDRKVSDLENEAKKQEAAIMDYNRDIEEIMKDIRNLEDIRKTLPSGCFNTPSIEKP

How the values were obtained:
[1] = molecular target: mouse His-laminin-α4 (mouse) (UniProt P97927); assay: ELISA hMCAM-Fc capture blocking assay; antibody pre-incubated with mouse LAMA4-His; blocked partner: captured hMCAM-Fc
[2] = molecular target: human His-laminin-α4 (human) (UniProt Q16363); assay: ForteBio and Biacore
[3] = molecular target: recombinant laminin 411 (human) (UniProt P07942+P11047); assay: hMCAM.CHO flow cytometric blocking assay; antibody pre-incubated with laminin 411; blocked partner: human MCAM on CHO cells
[4] = molecular target: human LAMA4 G domain (LG1-5) displayed on 293 cells (human) (UniProt Q16363); assay: flow cytometry competition on LAMA4-displaying 293 cells; 650-labeled antibody with unlabeled blocking antibody; MFI
[5] = molecular target: human LAMA4 LG1-3 modules displayed on 293 cells (human) (UniProt Q16363); assay: flow cytometry on 293 cells displaying LAMA4 G-domain variants; % binding
[6] = molecular target: human LAMA4 G domain (LG1-5) displayed on 293 cells (human) (UniProt Q16363); assay: as above
[7] = molecular target: LGde1, human LAMA4 G domain with LG1 deleted, displayed on 293 cells (human) (UniProt Q16363); assay: as above
[8] = molecular target: human LAMA4 LG1-3 modules displayed on 293 cells (human) (UniProt Q16363); assay: flow cytometry on 293 cells displaying LAMA4 G-domain variants
[9] = molecular target: human LAMA4 G domain (LG1-5) displayed on 293 cells (human) (UniProt Q16363); assay: flow cytometry, LAMA4 pDisplay binding assay on LAMA4-displaying 293 cells; % binding
[10] = molecular target: human LAMA4 G domain (LG1-5) displayed on 293 cells (human) (UniProt Q16363); assay: LAMA4 pDisplay flow cytometric blocking assay on LAMA4-displaying 293 cells; blocked ligand: 650-conjugated mouse MCAM-Fc

Measured: binding

B1: mouse monoclonal antibody 19C12 (antibody, V domains shown)
VH: QVQLQQSGAELVKPGASVKISCKASGYAFSTYWMNWVKQRPGEGLEWIGQIYPGDGDTNYNGKFKGKATLTADKSSSTAYMQLSSLTSEDSAVYFCARSDGYYDYWGQGTTLTVSS
VL: NIVLTQSPASLAVSLGQRATISCRASESVDSYGTSFMHWYQQKPGQPPKLLICLASSLESGVPARFSGSGSRTDFTLTIDPVEADDAATYYCQQNNEDPPTFGAGTKLELKR
binds: [1] | [2]

B2: mouse monoclonal antibody 1C1 (antibody, V domains shown)
VH: QVQLQQSGAELARPGASVKLSCKASGYTFTNYGISWVKQRTGQGLEWIGAIYPRSGNTYYNEKFKGKATLTADKSSSTAYMELRSLTSEDSAVYFCARERDYGSSYALDYWGQGTSVTVSS
VL: DIVMTQSQKFMSTSVGDRVSVTCKASHNVGTNVAWYQQKPGQSPKPLIYSASYRYSGVPDRFTGSGSGTDFTLTISNVQSEDLADYFCQQFNNYPYTFGGGTKLEIKR
not listed: [2]
binds: all other assays above
